# According to PubChem BioAssay AID2685 (National Center for Advancing Translational Sciences (NCATS), 2010):
# Some of the results follow. The main result of the screen is listed elsewhere. These columns were measured beside it and carry no call. Compounds called inactive in the main read-out are mostly missing here. Words in brackets tell the shape of the fitted curve; partial curves, single points and poor fits give uncertain potencies.
# Assay: qHTS Assay for Lipid Storage Modulators in Drosophila S3 Cells;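 for cell number change: cells counted by Cell Tracker Red CMTPX staining in the red channel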
# Settings: BODIPY lipid droplet fluorescence, 18-24 h; for cell number change: measured here: cell count max response, cells fed with added oleic acid
# Summary of the method: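 Drosophila S3 cells got compounds at several concentrations plus oleic acid (400 uM solution). Laser-scanning cytometry with 488 nm excitation read lipid droplets at 500-530 nm and cells at 575-640 nm. Percent activity was relative to 20 uM Triacsin C.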
# [1] = measured here: cell number channel AC50, cells fed with added oleic acid
# [2] = measured here: lipid fluorescence (Fed channel) AC50, cells fed with added oleic acid
SMILES,cell number change [%],AC50 [1],AC50 [2]
COC(=O)c1[nH]c2cccc(OC)c2c1NC(=O)CN(C)CC1OCCO1,33,"4.61 µM [rising, full curve, poor fit]","4.61 µM [rising, full curve]"
O=C(C[n+]1ccc(/C=N/O)cc1)NC(=O)Nc1ccccc1,-26.9,–,"1.03 µM [rising, partial curve]"
Cc1nc(NC(=O)C2CC2)sc1C(=O)N(C)C,-8.11,–,"0.366 µM [rising, partial curve, poor fit]"
Cc1occc1-c1nnc(SCC(=O)Nc2nccs2)n1Cc1ccco1,-2.11,–,–
CCOC(=O)C1CCN(CC(O)COc2ccc(S(=O)(=O)N3CCCC3)cc2[N+](=O)[O-])CC1 (stereo not drawn),52.3,"2.91 µM [rising, full curve]",–
CC(=O)Nc1ccccc1C(=O)C(=O)Nc1ccc(C(=O)NCC2CCCO2)cc1 (stereo not drawn),-4.15,–,–
Fc1ccc2nc(Nc3nc4cc5c(cc4s3)OCCO5)sc2c1,62.2,"13 µM [rising, partial curve]","9.2 µM [rising, partial curve]"
COC(=O)c1ccccc1NC(=O)NCc1ccccc1,36.5,"0.366 µM [rising, full curve]",–
CCOC(=O)N1CCN(C(=O)Cn2nc(C)n3nc(-c4ccc(OC)cc4)cc3c2=O)CC1,-10.8,–,"7.31 µM [rising, single point]"
Cc1cc(C(=O)N2CCN(S(=O)(=O)c3ccccc3F)CC2)c(C)o1,–,–,"0.146 µM [falling, single point]"
COc1ccc(S(=O)(=O)N(C(C)=O)c2ccc3oc(=O)sc3c2)cc1,1.39,–,"1.84 µM [falling, partial curve, poor fit]"
C=CCN1c2ccccc2[C@]23C[C@@H](C(=O)OC)N(C(=O)C4CCC4)C2=NC(C(=O)OC)=C(C(=O)OC)[C@H]13,8.65,–,"0.0411 µM [rising, full curve, poor fit]"
CCN(CC)S(=O)(=O)c1ccc(C(=O)OCCNC(=O)c2cccnc2)cc1,0.533,–,"0.326 µM [falling, full curve, poor fit]"
O=C1/C(=C\c2cc(Cl)c(O)c(Cl)c2)SC(=S)N1Cc1ccccc1,-98.2,"1.84 µM [falling, full curve]","0.326 µM [falling, full curve]"
CCCN1Cc2cccc(C(=O)N3CCN(c4cc(Cl)ccc4C)CC3)c2C1=O,-77.8,"29.1 µM [falling, single point]",–
O=C(CN1C2CCC1CC(NC(=O)Nc1ccccc1)C2)NCc1ccco1 (stereo not drawn),-0.523,–,"4.11 µM [rising, partial curve]"
O=S(=O)(NCc1ccc2c(c1)OCO2)c1cccc(F)c1,-4.91,–,–
CCC(CC)NC(=O)Cc1ccc(S(=O)(=O)N2CCOCC2)s1,9.1,–,–
CCNC(=O)NC(=O)CSc1cccc(C(F)(F)F)c1,-13.2,–,"0.291 µM [rising, full curve, poor fit]"
Cc1ccccc1N1CCN(S(=O)(=O)c2ccc3ccccc3c2)CC1,50.7,"18.4 µM [rising, single point]",–
CCOc1ccccc1N(CC(=O)Nc1ccc(S(=O)(=O)N2CCCC2)cc1)S(C)(=O)=O,-43.6,"9.2 µM [falling, partial curve, poor fit]",–

SMILES,cell number change [%],AC50 [1],AC50 [2]
Cc1cc(CNC(=O)CC2C(=O)NCCN2Cc2ccc(-c3ccccc3)cc2)nn1C (stereo not drawn),11.5,–,–
C=CCNC(=O)COC(=O)c1ccc(Cl)c(S(N)(=O)=O)c1,-18.1,–,–
COc1ccc(N2CCN(c3ccc4nnc(CCC(=O)Nc5ccc(C)cc5)n4n3)CC2)cc1,1.44,–,–
CN(C)/C=C1\C(=O)ON=C1c1ccccc1,-28.9,"0.517 µM [rising, partial curve]",–
CC(=O)Nc1ccc(S(=O)(=O)N(C)CC(=O)OCC(=O)N2CCCC2=O)cc1,-15.2,–,–
CS(=O)(=O)Nc1nnc(C2CCCC2)s1,1.12,"0.231 µM [falling, full curve, poor fit]",–
O=C(O)c1ccc(S(=O)(=O)N[C@@H](Cc2ccc(O)cc2)C(=O)O)cc1,5.9,–,"16.4 µM [falling, single point]"
COc1ccccc1NC(=O)CN(Cc1ccco1)C(=O)c1cc2ccccc2o1,39.4,"20.6 µM [rising, single point]",–
O=C1c2ccccc2C(=O)N1CCOc1ccccc1Cl,-0.54,–,"0.58 µM [falling, single point]"
Cc1nc(NCCc2ccc(F)cc2)c(C#N)c(C)c1[N+](=O)[O-],-21.1,–,"9.2 µM [falling, single point]"
CCN(CC)C(=O)N1c2ccccc2Sc2ccccc21,5.84,–,"29.1 µM [rising, single point]"
O=C1Nc2ccccc2CCC1Sc1nnc(-c2ccc(Cl)cc2)s1 (stereo not drawn),-9.9,–,"20.6 µM [falling, single point]"
COc1cc(/C=C/C(=O)OCC(=O)NCc2ccco2)cc(OC)c1OC,-7.94,"2.06 µM [falling, partial curve]",–
CCn1nccc1C(=O)Nc1nccs1,–,"4.61 µM [falling, partial curve, poor fit]",–
COc1ccc(NC(=O)C2CCC(CNc3c(N4CCCCC4)c(=O)c3=O)CC2)cc1OC (stereo not drawn),–,"6.51 µM [rising, single point]","4.11 µM [rising, partial curve, poor fit]"
COCCCN1C(=O)C(=O)/C(=C(/O)c2ccc(OCC(C)C)cc2C)C1c1cccnc1 (stereo not drawn),96.5,"29.1 µM [rising, single point]",–
Cc1c(C)c2ccc(OC(C)C(=O)NCCc3c[nH]c4ccccc34)cc2oc1=O (stereo not drawn),-5.54,–,"23.1 µM [falling, partial curve, poor fit]"
Cc1ccccc1OCc1nnc(SCC(=O)NC2CCCCC2)o1,44.4,"5.17 µM [rising, partial curve, poor fit]","6.51 µM [rising, partial curve]"
COc1ccc(S(=O)(=O)N2CCCCCC2)cc1C(=O)OCC(=O)NCC(C)C,60.3,"1.84 µM [rising, full curve]",–
Cn1c(SCC(=O)N2CCN(c3cccc(Cl)c3)CC2)nnc1-c1ccncc1,-15.7,–,"29.1 µM [falling, single point]"
CN(C(=O)C12CC3CC(CC(C3)C1)C2)C1CCS(=O)(=O)C1 (stereo not drawn),1.55,–,–

# 3 structures from above, arranged by SMILES length, ascending:
SMILES,cell number change [%],AC50 [1],AC50 [2]
CCn1nccc1C(=O)Nc1nccs1,–,"4.61 µM [falling, partial curve, poor fit]",–
C=CCNC(=O)COC(=O)c1ccc(Cl)c(S(N)(=O)=O)c1,-18.1,–,–
CCN(CC)S(=O)(=O)c1ccc(C(=O)OCCNC(=O)c2cccnc2)cc1,0.533,–,"0.326 µM [falling, full curve, poor fit]"

# Carrying on:

SMILES,cell number change [%],AC50 [1],AC50 [2]
O=c1c2cccnc2nc2n1CCCCC2,-4.62,"0.82 µM [falling, single point]","2.31 µM [falling, single point]"
COc1ccccc1N(C(=O)c1snc(C(N)=O)c1N)C(C(=O)NC1CCCC1)c1ccco1 (stereo not drawn),4.61,–,"16.4 µM [rising, single point]"
O=C(CSc1ncnc2c1cnn2-c1ccccc1)NCC1CCCO1 (stereo not drawn),–,–,"4.11 µM [falling, single point]"
Cc1cc(C(=O)CSc2nnc(-c3ccc(F)cc3)o2)c(C)n1CC1COc2ccccc2O1 (stereo not drawn),-7.9,–,–
COc1ccc(CC(=O)NCCS(=O)(=O)N2CCN(c3ccc(F)cc3)CC2)cc1OC,-18.9,–,–
N=c1c(S(=O)(=O)c2ccc(Cl)cc2)cc2c(=O)n3ccccc3nc2n1C1CCCCC1,16.8,–,–
O=C(CNC(=O)c1ccccc1)Nc1ccsc1C(=O)O,-23.6,–,"16.4 µM [falling, partial curve, poor fit]"
O=C(Nc1ccccc1)c1ccc(S(=O)(=O)NCc2cccnc2)cc1,4.96,"6.51 µM [rising, single point]","1.3 µM [rising, full curve]"
COC(=O)c1ccc(NC(=O)c2ccccc2NS(=O)(=O)c2ccccc2)cc1,104,"29.1 µM [rising, single point]",–
CC1CCN(C(=O)CCNS(=O)(=O)c2ccc(Cl)cc2)CC1,15.5,"6.51 µM [rising, single point]",–
COc1ccc(/C=N/NC(=O)c2ccc(NC(=O)c3cccc([N+](=O)[O-])c3)cc2)c(C(=O)O)c1OC,-10.3,–,"2.91 µM [rising, full curve]"
CCN=C1S/C(=C\c2ccc(N3CCOCC3)cc2C)C(=O)N1CC,-34.4,"32.6 µM [falling, single point]","0.82 µM [rising, full curve, poor fit]"
Nc1ccc(OCC(O)C[n+]2ccc(CCS(=O)(=O)[O-])cc2)cc1 (stereo not drawn),-27.1,–,–
O=C(CSc1nnc(-c2ccccc2)c(-c2ccccc2)n1)Nc1ccc(Br)cn1,-75.8,"11.6 µM [falling, partial curve]","2.59 µM [falling, full curve]"
Cc1nn(C)cc1/C=N/NC(=O)C(C)(C)Oc1ccc(Cl)cc1,36.6,"10.3 µM [rising, partial curve, poor fit]",–
O=C(c1ccc([N+](=O)[O-])o1)N1CCN(Cc2ccccc2)CC1,–,–,"20.6 µM [falling, partial curve]"
CCNC(=S)NNC(=O)c1cc(-c2ccc(OC)cc2)nc2ccccc12,-3.9,–,–
CC1(C)CC(=O)C2=C(C1)Nc1ccccc1NC2c1ccc(F)cc1 (stereo not drawn),-22.3,–,–
COc1ccc(-n2c(C)cc(/C=C3\C(=N)N4N=C(CC(=O)N5CCOCC5)SC4=NC3=O)c2C)c(OC)c1,-3.36,–,"29.1 µM [falling, single point]"
CCOc1ccc(NC(=O)N2CCCC2C(=O)NCc2ccco2)cc1 (stereo not drawn),10.5,–,"0.231 µM [rising, full curve, poor fit]"
